Data set [1] addresses T1, MftR WT (Mycobacterium smegmatis mc2155) (UniProt A0QSB5).
T1 sequence (looked up, limits assumed): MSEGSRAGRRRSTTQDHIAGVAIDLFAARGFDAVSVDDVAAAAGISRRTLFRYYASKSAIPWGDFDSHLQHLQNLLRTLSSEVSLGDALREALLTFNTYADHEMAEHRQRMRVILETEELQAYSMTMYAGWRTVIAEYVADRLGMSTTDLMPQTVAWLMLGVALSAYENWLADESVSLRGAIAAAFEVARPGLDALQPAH
Description: EMSA. The note with it: EMSA: 50 mM Hepes, 50 mM NaCl, 0.1 mM EDTA, pH 7.5, room temperature 10 min, 5% PAGE in 1x TBE on ice, recombinant protein, protein details: His-tag (pET-28a, NdeI/XhoI), label: 6-FAM. A general note: In EMSA bound probe runs differently from free probe, usually more slowly.

For data set [2], the target named is T1, MftR WT (Mycobacterium smegmatis mc2155). As to the kind of experiment: competition with a labelled probe. Conditions: 4 uM cold probe, 2 uM MftR, 20 nM FAM-Omft; EMSA: 50 mM Hepes, 50 mM NaCl, 0.1 mM EDTA, pH 7.5, room temperature 10 min, 5% PAGE in 1x TBE on ice; recombinant protein; protein details: His-tag (pET-28a, NdeI/XhoI).

These results are taken from article PMC8728441, “Biosynthesis of the redox cofactor mycofactocin is controlled by the transcriptional regulator MftR and induced by long-chain acyl-CoA species” (The Journal of Biological Chemistry, 2021).

For at least one entry, the source does not settle the construct or the ends of the probe. For part of these data: A weaker result is weaker than the reference pair of the same experiment. Tags and fusion partners may be left off the protein sequences shown. For part of these data: At least one verdict was read from the data and is not stated in words by the source.

Turning to “TCCATTCTGGCACTCGATGCCATATAT (double strand) [FAM-Omft]”, the binding result in data set [1] (100 uM myristoyl-CoA) and in data set [1] (100 uM oleoyl-CoA) was “binds more weakly” throughout.
As for “TCCATTCTGGCACTCGATGCCATATAT (double strand) [cold Omft]”, in data set [2], the binding result is “binds”.
